Source: article PMC10688980
No constants are given. Whether binding was seen depends on the method and setting. In cells and extracts the contact can be indirect. Some binding calls cover weakened binding; strength is not graded here. For some assays here: Where a sequence is shown, tags or fusion partners need not be part of it.

Amino acid sequences for entries named in this document (tags omitted).
UniProt P62333: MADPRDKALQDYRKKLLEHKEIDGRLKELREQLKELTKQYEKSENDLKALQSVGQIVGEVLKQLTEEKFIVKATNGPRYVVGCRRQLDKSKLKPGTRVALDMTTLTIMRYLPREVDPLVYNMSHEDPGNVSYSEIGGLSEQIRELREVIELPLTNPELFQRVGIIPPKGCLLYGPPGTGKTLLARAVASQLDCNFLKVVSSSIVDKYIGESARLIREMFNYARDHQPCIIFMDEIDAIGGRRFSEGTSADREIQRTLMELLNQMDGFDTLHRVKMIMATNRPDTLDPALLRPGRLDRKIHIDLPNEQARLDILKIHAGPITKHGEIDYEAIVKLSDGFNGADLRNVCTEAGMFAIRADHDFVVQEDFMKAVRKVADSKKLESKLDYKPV
UniProt Q16186: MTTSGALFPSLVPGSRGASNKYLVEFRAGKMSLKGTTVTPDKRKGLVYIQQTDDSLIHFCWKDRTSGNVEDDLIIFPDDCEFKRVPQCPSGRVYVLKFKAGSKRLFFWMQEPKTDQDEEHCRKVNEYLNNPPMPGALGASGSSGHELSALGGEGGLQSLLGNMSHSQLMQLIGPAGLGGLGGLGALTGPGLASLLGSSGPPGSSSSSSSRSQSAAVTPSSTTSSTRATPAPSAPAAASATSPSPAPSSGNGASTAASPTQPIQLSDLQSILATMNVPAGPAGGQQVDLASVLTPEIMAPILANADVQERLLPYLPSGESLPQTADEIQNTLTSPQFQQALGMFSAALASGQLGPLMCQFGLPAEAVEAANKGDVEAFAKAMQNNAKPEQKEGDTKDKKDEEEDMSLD
UniProt O00487: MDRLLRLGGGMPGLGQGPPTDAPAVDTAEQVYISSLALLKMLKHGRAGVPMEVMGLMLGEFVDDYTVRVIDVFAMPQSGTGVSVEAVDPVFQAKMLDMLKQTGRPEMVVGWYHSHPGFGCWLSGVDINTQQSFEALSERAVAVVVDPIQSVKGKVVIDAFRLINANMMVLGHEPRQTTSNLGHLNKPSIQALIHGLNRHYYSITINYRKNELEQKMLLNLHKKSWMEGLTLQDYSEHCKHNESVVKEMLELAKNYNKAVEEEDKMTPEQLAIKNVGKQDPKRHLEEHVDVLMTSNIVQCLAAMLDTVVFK
UniProt O00232: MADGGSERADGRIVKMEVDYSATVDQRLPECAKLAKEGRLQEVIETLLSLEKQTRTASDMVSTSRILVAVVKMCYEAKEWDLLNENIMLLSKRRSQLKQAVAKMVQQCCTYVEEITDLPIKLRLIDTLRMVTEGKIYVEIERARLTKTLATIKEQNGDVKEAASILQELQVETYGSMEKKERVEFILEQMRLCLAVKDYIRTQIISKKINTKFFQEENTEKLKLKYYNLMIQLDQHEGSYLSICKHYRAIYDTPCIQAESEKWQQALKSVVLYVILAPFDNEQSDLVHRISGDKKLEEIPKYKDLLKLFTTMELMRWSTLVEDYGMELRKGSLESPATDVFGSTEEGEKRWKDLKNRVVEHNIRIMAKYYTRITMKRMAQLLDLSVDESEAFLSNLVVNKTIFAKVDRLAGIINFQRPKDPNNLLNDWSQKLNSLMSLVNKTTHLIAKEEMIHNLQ
UniProt Q16401: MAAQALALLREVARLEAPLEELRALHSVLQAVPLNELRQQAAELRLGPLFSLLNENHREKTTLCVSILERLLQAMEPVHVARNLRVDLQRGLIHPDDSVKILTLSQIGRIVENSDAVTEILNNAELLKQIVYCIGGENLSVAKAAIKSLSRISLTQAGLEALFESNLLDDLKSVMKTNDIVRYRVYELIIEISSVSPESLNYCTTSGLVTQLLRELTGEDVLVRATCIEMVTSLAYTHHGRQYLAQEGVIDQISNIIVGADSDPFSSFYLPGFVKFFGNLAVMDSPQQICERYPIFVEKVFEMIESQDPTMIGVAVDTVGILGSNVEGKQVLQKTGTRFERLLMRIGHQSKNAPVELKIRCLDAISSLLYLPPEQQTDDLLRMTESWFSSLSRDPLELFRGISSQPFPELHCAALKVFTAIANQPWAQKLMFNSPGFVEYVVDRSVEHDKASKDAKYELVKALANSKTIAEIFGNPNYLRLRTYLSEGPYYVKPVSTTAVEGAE

T1: 6xHis-WDR70 (112–654 aa) (UniProt Q9NW82)
T1 sequence: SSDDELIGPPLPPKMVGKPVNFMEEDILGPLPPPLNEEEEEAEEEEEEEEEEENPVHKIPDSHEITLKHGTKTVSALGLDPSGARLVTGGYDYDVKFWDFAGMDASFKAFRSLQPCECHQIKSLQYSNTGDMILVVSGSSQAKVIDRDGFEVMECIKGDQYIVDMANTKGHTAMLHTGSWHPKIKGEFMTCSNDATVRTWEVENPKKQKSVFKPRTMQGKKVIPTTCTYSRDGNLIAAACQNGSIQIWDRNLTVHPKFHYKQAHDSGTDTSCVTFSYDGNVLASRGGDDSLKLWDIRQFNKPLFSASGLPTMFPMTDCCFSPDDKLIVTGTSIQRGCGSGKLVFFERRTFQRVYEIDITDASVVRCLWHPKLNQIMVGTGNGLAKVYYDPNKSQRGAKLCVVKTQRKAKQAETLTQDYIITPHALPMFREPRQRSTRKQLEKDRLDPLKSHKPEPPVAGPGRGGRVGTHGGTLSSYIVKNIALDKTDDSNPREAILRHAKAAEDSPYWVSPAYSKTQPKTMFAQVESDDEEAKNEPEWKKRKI


How the values were obtained:
[1] = target: T1, 6xHis-WDR70 (112–654 aa); assay: pull-down; 19S particles dissociated in nuclear HEK293T extracts with high-salt buffer (600 mM NaCl) and incubated with His-WDR70 (112–654 aa) purified from Sf9 cells; only the target purified
[2] = target: FLAG-PSMC6^Rpt4 (UniProt P62333); assay: co-IP; endogenous WDR70 and FLAG-tagged 19S subunits, with or without PSMD5 silencing
[3] = target: FLAG-ADRM1^Rpn13 (human) (UniProt Q16186); assay: as above
[4] = target: FLAG-POH1^Rpn11 (UniProt O00487); assay: as above
[5] = target: FLAG-PSMD12^Rpn5 (UniProt O00232); assay: as above

Row | binding [1] | binding [2] | binding [3] | binding [4] | binding [5] | Molecule
1 | binds | – | – | – | – | PSMD5^Hsm3 (endogenous, HEK293T nuclear extract) (from UniProt Q16401 1-504)
2 | – | binds | binds | binds | binds | WDR70 (endogenous, human cells) (protein, UniProt Q9NW82 1-654) MERSGPSEVTGSDASGPDPQLAVTMGFTGFGKKARTFDLEAMFEQTRRTAVERSRKTLEAREKEEEMNREKELRRQNEDIEPTSSRSNVVRDCSKSSSRDTSSSESEQSSDSSDDELIGPPLPPKMVGKPVNFMEEDILGPLPPPLNEEEEEAEEEEEEEEEEENPVHKIPDSHEITLKHGTKTVSALGLDPSGARLVTGGYDYDVKFWDFAGMDASFKAFRSLQPCECHQIKSLQYSNTGDMILVVSGSSQAKVIDRDGFEVMECIKGDQYIVDMANTKGHTAMLHTGSWHPKIKGEFMTCSNDATVRTWEVENPKKQKSVFKPRTMQGKKVIPTTCTYSRDGNLIAAACQNGSIQIWDRNLTVHPKFHYKQAHDSGTDTSCVTFSYDGNVLASRGGDDSLKLWDIRQFNKPLFSASGLPTMFPMTDCCFSPDDKLIVTGTSIQRGCGSGKLVFFERRTFQRVYEIDITDASVVRCLWHPKLNQIMVGTGNGLAKVYYDPNKSQRGAKLCVVKTQRKAKQAETLTQDYIITPHALPMFREPRQRSTRKQLEKDRLDPLKSHKPEPPVAGPGRGGRVGTHGGTLSSYIVKNIALDKTDDSNPREAILRHAKAAEDSPYWVSPAYSKTQPKTMFAQVESDDEEAKNEPEWKKRKI
